Test results taken from patent publication US20240101684A1 (AIMED BIO, published 2024).
Results are given in words; binding and its absence hold for the method and conditions named. Some results given as binding are weak or reduced against the parent protein; the word gives no strength.

Amino acid sequences for entries named in this document (tags omitted). Residues count along the entry.
UniProt P22607, residues 23-806: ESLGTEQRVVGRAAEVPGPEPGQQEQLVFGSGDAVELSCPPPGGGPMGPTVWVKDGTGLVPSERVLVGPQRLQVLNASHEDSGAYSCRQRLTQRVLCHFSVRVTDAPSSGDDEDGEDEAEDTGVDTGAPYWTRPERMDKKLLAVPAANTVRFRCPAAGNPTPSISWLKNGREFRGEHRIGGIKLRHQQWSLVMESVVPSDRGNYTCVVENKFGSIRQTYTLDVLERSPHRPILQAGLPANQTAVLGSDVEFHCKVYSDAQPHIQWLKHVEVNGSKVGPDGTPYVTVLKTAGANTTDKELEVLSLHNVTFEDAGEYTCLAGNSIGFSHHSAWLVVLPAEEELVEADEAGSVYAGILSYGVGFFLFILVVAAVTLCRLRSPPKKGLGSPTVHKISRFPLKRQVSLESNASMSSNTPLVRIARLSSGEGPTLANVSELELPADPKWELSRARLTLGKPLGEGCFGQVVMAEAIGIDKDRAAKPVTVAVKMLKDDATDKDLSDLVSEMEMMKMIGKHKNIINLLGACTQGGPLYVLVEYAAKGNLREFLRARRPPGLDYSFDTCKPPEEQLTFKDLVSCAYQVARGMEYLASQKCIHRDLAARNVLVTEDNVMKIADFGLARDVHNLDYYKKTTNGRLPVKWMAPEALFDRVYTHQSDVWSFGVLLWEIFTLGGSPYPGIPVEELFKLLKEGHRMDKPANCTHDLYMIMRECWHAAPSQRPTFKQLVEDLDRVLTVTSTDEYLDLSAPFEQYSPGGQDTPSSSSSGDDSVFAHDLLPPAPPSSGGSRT

B1: F303 (antibody, V domains shown)
VH: EVQLLESGGGLVQPGGSLRLSCAASGFTFSSYYMSWVRQAPGKGLEWVSAISPGSSNKYYADSVKGRFTISRDNSKNTLYLQMNSLRAEDTAVYYCAKDWSKFDYWGQGTLVTVSS
VL: QSVLTQPPSASGTPGQRVTISCSGSSSNIGSNDVTWYQQLPGTAPKLLIYDDNHRPSGVPDRFSGSKSGTSASLAISGLRSEDEADYYCGTWDASLSAYVFGGGTKLTVL
B2: FS316 (antibody, V domains shown)
VH: EVQLLESGGGLVQPGGSLRLSCAASGFTFSSYAMSWVRQAPGKGLEWVSGVSYSGNNKYYADSLQSRFTISRDNSKNTLYLQMNSLRAEDTAVYYCARNRNAIFDYWGQGTLVTVSS
VL: QSVLTQPPSASATPGQRVTISCSRNNIGSKSMHWYQQLPGTAPKLLIYDNNKRPSGVSDRFSGSKSGTSASLAISGLRSEDEADYYCSSYTSSSTLVFGGGTKLTVL
B3: FS314 (antibody, V domains shown)
VH: EVQLLESGGGLVQPGGSLRLSCAASGFTFSNYPMSWVRQAPGKGLEWVSSVSGSGTSTYYADSVKGRFTISRDNSKNTLHLQMNSLRAEDTAVYYCARHTQRWGAFDPWGQGTLVTVSS
VL: QSVLTQPPSASGTPGQRVTISCGGDNIGTKSVHWYQQLPGTAPKLLIYGNSNRPSGVPNRFSGSKSGTSASLAISGLRSEDEADYYCQSYDSSLSGYVFGGGTKLTVL
B4: FS313 (antibody, V domains shown)
VH: EVQLLESGGGLVQPGGSLRLSCAASGFTFSGYAMSWVRQAPGKGLEWVSGINWRGATTAYADSLKGRFTISRDNSKNTLYLQMNSLRAEDTAVYYCARSDYGLFDIWGQGTLVTVSS
VL: QSVLTQPPSASGAPGQRVTISCGGNNIGSKSVHWYQQLPGTAPKLLIYQDTKRPSGVPNRFSGSKSGTSASLAISGLRSEDEADYYCQSYDSRQLVFGGGTKLTVL
notes: also called FS313 IgG
B5: FS312 (antibody, V domains shown)
VH: EVQLLESGGGLVQPGGSLRLSCAASGFTFSNYWMTWVRQAPGKGLEWVSWINTYSGNTNYNPSLKTRFTISRDNSKNTLYLQMNSLRAEDTAVYYCARGRGMFDYWGQGTLVTVSS
VL: QSVLTQPPSASGTPGQRVTISCSDNIGSKSVHWYQQLPGTAPKLLIYSNNQRPSGVSDRFSGSKSGTSASLAISGLRSEDEADYYCQSYDSSTVVFGGGTKLTVL
B6: FS310 (antibody, V domains shown)
VH: EVQLLESGGGLVQPGGSLRLSCAASGFTFSIYGMHWVRQAPGKGLEWVSSIYYSGDTYYNPSLESRFTISRDNSKNTLYLQMNSLRAEDTAVYYCARDIGSSWGFDYWGQGTLVTVSS
VL: QSVLTQPPSASGTPGQRVTISCTAAASDIASNYVQWYQQLPGTAPKLLIYEDTKRPSGVPYRFSGSKSGTSASLAISGLRSEDEADYYCATWDDSLRGWVFGGGTKLTVL
B7: FS307 (antibody, V domains shown)
VH: EVQLLESGGGLVQPGGSLRLSCAASGFTFSSYAISWVRQAPGKGLEWVSSIYYSGSTYYNPSLKSRFTISRDNSKNTLYLQMNSLRAEDTAVYYCAQGASWMDMWGQGTLVTVSS
VL: EIVLTQSPGTLSLSPGERATLSCQASQDISNYLNWYQQKPGQAPRLLIYDASNRATGIPDRFSGSGSGTDFTLTISRLEPEDFAVYYCQQSYSTPITFGQGTKVEIK
B8: FS303 (antibody, V domains shown)
VH: EVQLLESGGGLVQPGGSLRLSCAASGFTFSNYWIGWVRQAPGKGLEWVSIIHPGGSDSRYSPSFQGRFTISRDNSKNTLYLQMNSLRAEDTAVYYCARWRAWFDSWGQGTLVTVSS
VL: EIVLTQSPGTLSLSPGERATLSCRASQSITDYLAWYQQKPGQAPRLLIYDASNRATGIPDRFSGSGSGTDFTLTISRLEPEDFAVYYCQQSYSTPFTFGQGTKVEIK
B9: FS301 (antibody, V domains shown)
VH: EVQLLESGGGLVQPGGSLRLSCAASGFTFSNYAIHWVRQAPGKGLEWVSSIIPISGTANYAQKFQGRFTISRDNSKNTLYLQMNSLRAEDTAVYYCSRGGYGFDYWGQGTLVTVSS
VL: EIVLTQSPGTLSLSPGERATLSCRASQSISTFLNWYQQKPGQAPRLLIYDATNRATGIPDRFSGSGSGTDFTLTISRLEPEDFAVYYCQQANSFPLTFGQGTKVEIK
B10: F311 (antibody, V domains shown)
VH: EVQLLESGGGLVQPGGSLRLSCAASGFTFSDYDMSWVRQAPGKGLEWVSAISSSDGSTYYADSVKGRFTISRDNSKNTLYLQMNSLRAEDTAVYYCAKHLPNFDYWGQGTLVTVSS
VL: QSVLTQLPSASGTPGQRVTISCTGSSSNIGNNTVSWYQQLPGTAPKLLIYYDSHRPSGVPDRFSGSKSGTSASLAISGLRSEDEADYYCGTWDDSLNGYVFGGGTKLTVL
B11: F310 (antibody, V domains shown)
VH: EVQLLESGGGLVQPGGSLRLSCAASGFTFSNYYMSWVRQAPGKGLEWVSGIYYGSGNIYYADSVKGRFTISRDNSKNTLYLQMNSLRAEDTAVYYCARGGGGFDYWGQGTLVTVSS
VL: QSVLTQPPSASGTPGQRVTISCSGSSSNIGNNDVYWYQQLPGTAPKLLIYADNHRPSGVPDRFSGSKSGTSASLAISGLRSEDEADYYCGAWDASLNGYVFGGGTKLTVL
B12: F308 (antibody, V domains shown)
VH: EVQLLESGGGLVQPGGSLRLSCAASGFTFSNYYMSWVRQAPGKGLEWVSGISPGSGSIYYADSVKGRFTISRDNSKNTLYLQMNSLRAEDTAVYYCAKDWTRFDYWGQGTLVTVSS
VL: QSVLTQPPSASGTPGQRVTISCTGSSSNIGNNAVSWYQQLPGTAPKLLIYDDSKRPSGVPDRFSGSKSGTSASLAISGLRSEDEADYYCGAWDYSLSAYVFGGGTKLTVL
B13: F304 (antibody, V domains shown)
VH: EVQLLESGGGLVQPGGSLRLSCAASGFTFSDYYMSWVRLAPGKGLEWVSAIYHGDGSTYYADSVKGRFTISRDNSKNTLYLQMNSLRAEDTAVYYCARDSRLCQTSGCYSDDAMDVWGQGTLVTVSS
VL: QSVLTQPPSASGTPGQRVTISCTGSSSNIGNNYVSWYQQLPGTAPKLLIYYNSHRPSGVPDRFSGSKSGTSASLAISGLRSEDEADYYCATWDDSLSGYVFGGGTKLTVL
B14: F309#SSM001 (antibody, V domains shown)
VH: EVQLLESGGGLVQPGGSLRLSCAASGFTFSSYDMSWVRQAPGKGLEWVSGIYSGDGSIYYADSVKGRFTISRDNSKNTLYLQMNSLRAEDTAVYYCAKDYPTNEMSRFDYWGQGTLVTVSS
VL: QSVLTQPPSASGTPGQRVTISCSGSSSNIGNNYVSWYQQLPGTAPKLLIYADSKRPSGVPDRFSGSKSGTSASLAISGLRSEDEADYYCASWDYSLSGYVFGGGTKLTVL
B15: F309#SSM002 (antibody, V domains shown)
VH: EVQLLESGGGLVQPGGSLRLSCAASGFTFSSYDMSWVRQAPGKGLEWVSGIYSGDGSIYYADSVKGRFTISRDNSKNTLYLQMNSLRAEDTAVYYCAKDGPTNEMSRFDYWGQGTLVTVSS
VL: QSVLTQPPSASGTPGQRVTISCSGSSSNIGNNYVSWYQQLPGTAPKLLIYADSKRPSGVPDRFSGSKSGTSASLAISGLRSEDEADYYCASWDYSLSGYVFGGGTKLTVL
B16: F309#SSM003 (antibody, V domains shown)
VH: EVQLLESGGGLVQPGGSLRLSCAASGFTFSSYDMSWVRQAPGKGLEWVSGIYSGDGSIYYADSVKGRFTISRDNSKNTLYLQMNSLRAEDTAVYYCAKDAPMNEMSRFDYWGQGTLVTVSS
VL: QSVLTQPPSASGTPGQRVTISCSGSSSNIGNNYVSWYQQLPGTAPKLLIYADSKRPSGVPDRFSGSKSGTSASLAISGLRSEDEADYYCASWDYSLSGYVFGGGTKLTVL
B17: F309#SSM004 (antibody, V domains shown)
VH: EVQLLESGGGLVQPGGSLRLSCAASGFTFSSYDMSWVRQAPGKGLEWVSGIYSGDGSIYYADSVKGRFTISRDNSKNTLYLQMNSLRAEDTAVYYCAKDAPTNEISRFDYWGQGTLVTVSS
VL: QSVLTQPPSASGTPGQRVTISCSGSSSNIGNNYVSWYQQLPGTAPKLLIYADSKRPSGVPDRFSGSKSGTSASLAISGLRSEDEADYYCASWDYSLSGYVFGGGTKLTVL
B18: F309#SSM005 (antibody, V domains shown)
VH: EVQLLESGGGLVQPGGSLRLSCAASGFTFSSYDMSWVRQAPGKGLEWVSGIYSGDGSIYYADSVKGRFTISRDNSKNTLYLQMNSLRAEDTAVYYCAKDAPTNEPSRFDYWGQGTLVTVSS
VL: QSVLTQPPSASGTPGQRVTISCSGSSSNIGNNYVSWYQQLPGTAPKLLIYADSKRPSGVPDRFSGSKSGTSASLAISGLRSEDEADYYCASWDYSLSGYVFGGGTKLTVL
B19: F309#SSM006 (antibody, V domains shown)
VH: EVQLLESGGGLVQPGGSLRLSCAASGFTFSSYDMSWVRQAPGKGLEWVSGIYSGDGSIYYADSVKGRFTISRDNSKNTLYLQMNSLRAEDTAVYYCAKDAPTNEESRFDYWGQGTLVTVSS
VL: QSVLTQPPSASGTPGQRVTISCSGSSSNIGNNYVSWYQQLPGTAPKLLIYADSKRPSGVPDRFSGSKSGTSASLAISGLRSEDEADYYCASWDYSLSGYVFGGGTKLTVL
B20: F309#SSM007 (antibody, V domains shown)
VH: EVQLLESGGGLVQPGGSLRLSCAASGFTFSSYDMSWVRQAPGKGLEWVSGIYSGDGSIYYADSVKGRFTISRDNSKNTLYLQMNSLRAEDTAVYYCAKDAPTNEMSRFDYWGQGTLVTVSS
VL: QSVLTQPPSASGTPGQRVTISCSGSSSNIGNNYVSWYQQLPGTAPKLLIYADSKRPSGVPDRFSGSKSGTSASLAISGLRSEDEADYYCAVWDYSLSGYVFGGGTKLTVL
B21: F309#SSM008 (antibody, V domains shown)
VH: EVQLLESGGGLVQPGGSLRLSCAASGFTFSSYDMSWVRQAPGKGLEWVSGIYSGDGSIYYADSVKGRFTISRDNSKNTLYLQMNSLRAEDTAVYYCAKDAPTNEMSRFDYWGQGTLVTVSS
VL: QSVLTQPPSASGTPGQRVTISCSGSSSNIGNNYVSWYQQLPGTAPKLLIYADSKRPSGVPDRFSGSKSGTSASLAISGLRSEDEADYYCASWDYSLTGYVFGGGTKLTVL

Biological target: FGFR3(-TACC3) on FGFR3-TACC3 overexpressing brain tumor patient-derived cells (GBM15-682T) (human (brain tumor patient-derived cells)) (UniProt P22607)
Test: FACS, cell surface binding on FGFR3(-TACC3) overexpressing brain tumor patient-derived cells

binding, binds:
B1
B2
B3
B4
B5
B6
B7
B8
B9
B10
B11
B12
B13

Biological target: FGFR3 recombinant protein (isoform not given) (Homo sapiens (Human)) (UniProt P22607)
Test: affinity ELISA

binding, binds:
B14
B15
B16
B17
B18
B19
B20
B21
